PubChem BioAssay AID743121 | NCATS – 2013
Screen: 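Partners whose loss is lethal together with topoisomerase I blockade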 (primary screen). Cell system: MDA-MB-231 cells, a human breast cancer line. Reagents: single siRNA against human genes, 20 nM siRNA (0.8 pmol per well). Time to read-out: 120 h (drug added 48 h after transfection, read 72 h later). Challenge: camptothecin 20 nM (about EC30) for 72 h; vehicle 0.1% DMSO in parallel plates. Measurement: 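Cell viability by ATP luminescence (CellTiter-Glo) as % of non-targeting siRNA wells, and the log2 ratio of viability without drug over viability with camptothecin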. Direction: log2 vehicle/camptothecin viability: higher = stronger sensitisation to camptothecin; viability with camptothecin: higher = more viable cells. Rule for the call: 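Each gene scored by redundant siRNA activity (RSA) over its individual siRNA ratios; a gene is called active at p < 0.001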.
This is an unselected part of about 26,000 reagents tested. Of all reagents, 167 (0.63%) got an active call. 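Calls are per gene from RSA p-values that are not deposited; an individual active-marked siRNA can sensitise only weakly.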 The numbers tell different reagents against one gene apart. Further read-outs or replicates are left out here. Reagent sequences are not shown.

gene | reagent no. | log2 vehicle/camptothecin viability | viability with camptothecin (% of control) | Outcome
PSMC3 (proteasome 26S subunit, ATPase 3) | 1 | 0.127 | 12.7 | inactive
PSMC3 (proteasome 26S subunit, ATPase 3) | 2 | -0.406 | 17.7 | inactive
PSMC3 (proteasome 26S subunit, ATPase 3) | 3 | -0.505 | 90.2 | inactive
PSMC3 (proteasome 26S subunit, ATPase 3) | 4 | -0.339 | 24 | inactive
GRM4 (glutamate metabotropic receptor 4) | 1 | -0.0894 | 106 | inactive
GRM4 (glutamate metabotropic receptor 4) | 2 | 0.167 | 35 | inactive
GRM4 (glutamate metabotropic receptor 4) | 3 | -0.0679 | 70.1 | inactive
GRM4 (glutamate metabotropic receptor 4) | 4 | -0.151 | 78.2 | inactive
DDB1 (damage specific DNA binding protein 1) | 1 | -0.319 | 91.6 | inactive
DDB1 (damage specific DNA binding protein 1) | 2 | -0.245 | 79.9 | inactive
DDB1 (damage specific DNA binding protein 1) | 3 | -0.156 | 103 | inactive
DDB1 (damage specific DNA binding protein 1) | 4 | -0.353 | 82 | inactive
FGF1 (fibroblast growth factor 1) | 1 | 0.0529 | 85.3 | inactive
FGF1 (fibroblast growth factor 1) | 2 | 0.682 | 37.6 | inactive
FGF1 (fibroblast growth factor 1) | 3 | -0.0951 | 59.7 | inactive
FGF1 (fibroblast growth factor 1) | 4 | -0.354 | 43.7 | inactive
B2M (beta-2-microglobulin) | 1 | -0.619 | 60.9 | inactive
B2M (beta-2-microglobulin) | 2 | -0.00284 | 23.9 | inactive
B2M (beta-2-microglobulin) | 3 | -0.533 | 77.8 | inactive
B2M (beta-2-microglobulin) | 4 | -0.397 | 107 | inactive
CA3 (carbonic anhydrase 3) | 1 | -0.648 | 78.5 | inactive
CA3 (carbonic anhydrase 3) | 2 | -0.646 | 78 | inactive
BRSK1 (BR serine/threonine kinase 1) | 1 | -0.0989 | 52.3 | inactive
BRSK1 (BR serine/threonine kinase 1) | 2 | -0.175 | 90.7 | inactive
BRSK1 (BR serine/threonine kinase 1) | 3 | -0.274 | 89.3 | inactive
BRSK1 (BR serine/threonine kinase 1) | 4 | -0.32 | 98.6 | inactive
LTF (lactotransferrin) | 1 | -0.0761 | 59.3 | inactive
LTF (lactotransferrin) | 2 | -0.154 | 104 | inactive
LTF (lactotransferrin) | 3 | -0.34 | 61.3 | inactive
LTF (lactotransferrin) | 4 | 0.256 | 75.5 | inactive

Targets above whose gene name starts with F or f (4):
gene | reagent no. | log2 vehicle/camptothecin viability | viability with camptothecin (% of control) | Outcome
FGF1 (fibroblast growth factor 1) | 1 | 0.0529 | 85.3 | inactive
FGF1 (fibroblast growth factor 1) | 2 | 0.682 | 37.6 | inactive
FGF1 (fibroblast growth factor 1) | 3 | -0.0951 | 59.7 | inactive
FGF1 (fibroblast growth factor 1) | 4 | -0.354 | 43.7 | inactive
